No constants are given. Whether binding was seen depends on the method and setting. Some binding calls cover weakened binding; strength is not graded here.

The chains behind the UniProt entries cited, without tags or fusion partners. Where a name states a change or a piece, a line headed by the entry shows the natural chain unless it says otherwise.
UniProt P24385: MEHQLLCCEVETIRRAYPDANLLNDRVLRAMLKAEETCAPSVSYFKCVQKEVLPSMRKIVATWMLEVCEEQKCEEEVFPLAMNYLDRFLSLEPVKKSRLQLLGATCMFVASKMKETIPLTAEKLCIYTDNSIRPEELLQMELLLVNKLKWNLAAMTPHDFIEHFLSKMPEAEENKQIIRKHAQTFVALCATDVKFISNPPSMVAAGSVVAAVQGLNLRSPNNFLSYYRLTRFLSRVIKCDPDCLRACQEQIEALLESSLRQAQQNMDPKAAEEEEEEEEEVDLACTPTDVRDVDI
UniProt P30279: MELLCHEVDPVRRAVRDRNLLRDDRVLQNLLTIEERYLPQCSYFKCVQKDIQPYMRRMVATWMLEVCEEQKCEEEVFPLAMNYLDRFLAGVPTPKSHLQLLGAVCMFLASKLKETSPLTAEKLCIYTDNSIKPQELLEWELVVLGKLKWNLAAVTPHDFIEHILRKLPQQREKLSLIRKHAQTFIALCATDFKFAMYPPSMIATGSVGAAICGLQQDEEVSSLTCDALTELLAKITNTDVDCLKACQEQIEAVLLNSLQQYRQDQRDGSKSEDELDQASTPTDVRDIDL
UniProt P11802: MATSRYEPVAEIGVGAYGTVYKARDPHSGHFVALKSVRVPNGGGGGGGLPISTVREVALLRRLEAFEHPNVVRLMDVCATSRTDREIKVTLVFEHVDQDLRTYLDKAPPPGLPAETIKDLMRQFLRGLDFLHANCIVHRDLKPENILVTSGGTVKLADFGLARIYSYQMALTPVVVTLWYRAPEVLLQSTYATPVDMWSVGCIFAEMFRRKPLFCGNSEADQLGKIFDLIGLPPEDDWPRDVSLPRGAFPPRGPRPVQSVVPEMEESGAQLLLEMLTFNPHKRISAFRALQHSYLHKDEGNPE
UniProt Q00534: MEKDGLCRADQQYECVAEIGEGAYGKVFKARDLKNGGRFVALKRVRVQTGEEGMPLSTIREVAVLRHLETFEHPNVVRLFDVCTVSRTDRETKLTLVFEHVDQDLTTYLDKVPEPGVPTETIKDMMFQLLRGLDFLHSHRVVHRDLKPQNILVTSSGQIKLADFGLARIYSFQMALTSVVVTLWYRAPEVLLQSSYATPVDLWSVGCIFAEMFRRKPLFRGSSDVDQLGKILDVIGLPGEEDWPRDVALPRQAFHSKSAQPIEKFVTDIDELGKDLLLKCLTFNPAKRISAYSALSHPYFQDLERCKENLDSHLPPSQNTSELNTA
UniProt P38936: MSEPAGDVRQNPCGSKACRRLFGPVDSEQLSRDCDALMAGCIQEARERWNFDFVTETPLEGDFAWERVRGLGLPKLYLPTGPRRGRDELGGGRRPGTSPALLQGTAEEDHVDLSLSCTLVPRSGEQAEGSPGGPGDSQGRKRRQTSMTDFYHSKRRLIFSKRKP
UniProt P46527: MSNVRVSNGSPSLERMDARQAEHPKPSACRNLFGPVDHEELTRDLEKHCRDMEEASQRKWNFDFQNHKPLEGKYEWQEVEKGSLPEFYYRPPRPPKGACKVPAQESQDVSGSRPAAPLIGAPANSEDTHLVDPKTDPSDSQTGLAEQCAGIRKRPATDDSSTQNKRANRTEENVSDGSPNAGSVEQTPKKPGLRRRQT

For assay [1], the target named is cyclin D1-CDK6 (mVenus-cyclin D1 with CDK6-mTurquoise-Δ50 lamin A) (UniProt P24385). Kind of assay: recruitment to a CDK tethered at the inner nuclear membrane, with FRAP; as a4 but with 6 µM palbociclib overnight and throughout, or 6 µM palbociclib, ribociclib or abemaciclib added acutely about 4-5 min after photobleaching.
Another assay addresses cyclin D2-CDK4 (UniProt P30279). The description is as above.
Assay [2] deals with cyclin D1-CDK4 (mVenus-cyclin D1 with CDK4-mTurquoise-Δ50 lamin A) (UniProt P24385). Kind of assay: recruitment to a CDK tethered at the inner nuclear membrane, with FRAP; live RPE-1 cells with mVenus-cyclin, CDK-mTurquoise-Δ50 lamin A and mRuby3-p21, mRuby3-p27 or p21KID co-expressed; no CDK4/6 inhibitor (untreated or DMSO); recovery of the cyclin or of p21/p27 over 15 min after photobleaching; 37 °C.

Assay [3] has as its target cyclin D1-CDK6 (mVenus-cyclin D1 with CDK6-mTurquoise-Δ50 lamin A) (UniProt P24385). The assay is described as above.
Assay [4] has as its target cyclin D1-CDK4 (mVenus-cyclin D1 with CDK4-mTurquoise-Δ50 lamin A) (UniProt P24385). The assay is described as follows: recruitment to a CDK tethered at the inner nuclear membrane, with FRAP; as a4 but with 6 µM palbociclib overnight and throughout, or 6 µM palbociclib, ribociclib or abemaciclib added acutely about 4-5 min after photobleaching.
The target of assay [5] is CDK4-mTurquoise-Δ50 lamin A (UniProt P11802). The assay is described as follows: recruitment to a CDK tethered at the inner nuclear membrane; RPE-1 cells with cyclin D1 and tethered CDK4, co-knockdown of p21/p27 and overnight treatment with palbociclib (6 µM).
Assay [6] has the same target. The assay is described as follows: recruitment to a CDK tethered at the inner nuclear membrane; p21/p27 double-knockout MEFs transfected with cyclin D1 and CDK4 constructs; imaged without the cytoskeleton drug cocktail.
For assay [7] the target is unchanged. Kind of assay: recruitment to a CDK tethered at the inner nuclear membrane, with FRAP; as a4 but with 6 µM palbociclib overnight and throughout, or 6 µM palbociclib, ribociclib or abemaciclib added acutely about 4-5 min after photobleaching.
For assay [8] the target is unchanged. The assay is described as follows: recruitment to a CDK tethered at the inner nuclear membrane, with FRAP; live RPE-1 cells with mVenus-cyclin, CDK-mTurquoise-Δ50 lamin A and mRuby3-p21, mRuby3-p27 or p21KID co-expressed; no CDK4/6 inhibitor (untreated or DMSO); recovery of the cyclin or of p21/p27 over 15 min after photobleaching; 37 °C.
In assay [9] the target is CDK6-mTurquoise-Δ50 lamin A (UniProt Q00534). Kind of assay: recruitment to a CDK tethered at the inner nuclear membrane, with FRAP; live RPE-1 cells with mVenus-cyclin and CDK-mTurquoise-Δ50 lamin A, p21 and p27 depleted by siRNA co-knockdown; recovery of mVenus after photobleaching; 37 °C.
For assay [10] the target is unchanged. Kind of assay: recruitment to a CDK tethered at the inner nuclear membrane, with FRAP; live RPE-1 cells with mVenus-cyclin, CDK-mTurquoise-Δ50 lamin A and mRuby3-p21, mRuby3-p27 or p21KID co-expressed; no CDK4/6 inhibitor (untreated or DMSO); recovery of the cyclin or of p21/p27 over 15 min after photobleaching; 37 °C.

For mRuby3-p21 (from UniProt P38936 1-164), the binding result in [1] is listed as “binds”; in the assay with cyclin D2-CDK4, “binds weakly”; in [2], “binds”; in [3] it was “binds”.
For the substance mRuby3-p27 (from UniProt P46527 1-198), the binding entry in [4], in assay [1], in assay [2] and in [3] was “binds” each time.
“mVenus-cyclin D1 (from UniProt P24385 1-295)”: the binding result in assay [5], in assay [6], in assay [7] and in assay [8] was “binds” in each case.
As for “mVenus-cyclin D1 (from UniProt P24385 1-295) (other; other documents disagree on this pair)”, the binding entry in [9] and in [10] was “binds” each time.
As to “p21KID (amino acids 14-81) (from UniProt P38936 14-81) (domain or fragment)”, the binding entry in [4] is reported as “binds weakly”; in [1], “binds”; in assay [2], “binds”; in [3] it was “binds”.

The record behind these values is publication PMC8184839.
